Data reported in paper PMC9992712.
No constants are given. Whether binding was seen depends on the method and setting. Some binding calls cover weakened binding; strength is not graded here.

Protein sequences, listed by entry. Tags and fused reporters are not part of them. Lines headed by an entry give the natural chain unless they say otherwise; changes in a name come on top.
UniProt P25705: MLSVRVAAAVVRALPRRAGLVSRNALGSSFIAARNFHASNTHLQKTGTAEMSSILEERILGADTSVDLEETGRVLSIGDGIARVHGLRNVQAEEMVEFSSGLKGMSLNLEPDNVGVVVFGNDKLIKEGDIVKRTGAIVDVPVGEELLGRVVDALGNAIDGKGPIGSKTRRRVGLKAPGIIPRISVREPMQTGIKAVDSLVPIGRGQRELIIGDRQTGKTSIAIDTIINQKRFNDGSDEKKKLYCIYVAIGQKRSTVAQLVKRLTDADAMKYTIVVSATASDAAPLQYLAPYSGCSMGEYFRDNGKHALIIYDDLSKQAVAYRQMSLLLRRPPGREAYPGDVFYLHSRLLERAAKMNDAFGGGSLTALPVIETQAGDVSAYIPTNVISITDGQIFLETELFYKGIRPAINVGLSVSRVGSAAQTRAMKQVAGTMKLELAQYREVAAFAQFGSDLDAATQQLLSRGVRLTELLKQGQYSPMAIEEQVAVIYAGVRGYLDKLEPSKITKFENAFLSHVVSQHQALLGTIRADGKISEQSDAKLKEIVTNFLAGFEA
UniProt O75964: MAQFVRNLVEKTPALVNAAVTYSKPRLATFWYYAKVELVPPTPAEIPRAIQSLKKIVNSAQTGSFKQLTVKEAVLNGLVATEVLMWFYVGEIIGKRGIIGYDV

Target: human ATP synthase dimer (human (endogenous in HEK293T)) (UniProt P25705)
Assay: native gel or EMSA; 2D BN-PAGE/SDS-PAGE with mass spectrometry: HEK293T mitochondria (400 µg protein) extracted with 2% digitonin, dimers and monomers separated on 3-12% gradient gel, SDS-PAGE in the second dimension, 5-20 kDa bands analysed by mass spectrometry

## human ATP synthase subunit g (from UniProt O75964 1-103)
  binding: binds
